Measurements reported in US9987275B2, “Targeting PARP1 for treatment of TSC and cancers” (THE BRIGHAM AND WOMEN'S HOSPITAL, INC., priority 2014, dated 2018).
At least one compound was matched to its structure with a doubt left. Some entries share one result that the patent states for a list of compounds.

Legend:
[1] = tested on: TSC2-deficient patient-derived cells; assay: Cell viability, MTT assay; type: cell-based, human; conditions: 30 μM, p<0.01 (FIG. 6C)
TSC2-deficient cells = assay: DNA damage assessment, phospho-γH2A.X immunofluorescent staining; type: cell-based, human; conditions: 20 nM rapamycin (FIG. 1B)
[2] = tested on: Tsc2+/- mice renal tumors; assay: Renal tumors of Tsc2+/- mice, immunoblotting; type: in vivo, mouse; conditions: rapamycin 6 mg/kg every 2 days for one week (FIG. 4C)
[3] = tested on: TSC2-deficient patient-derived cells; assay: Quantitative real-time RT-PCR of PARP transcripts; type: cell-based, human; conditions: 24 hr (FIG. 3B)
Protocol: Quantitative RT-PCR was performed using One-Step qRT-PCR Kits in the Applied Biosystems Real-Time PCR System and normalized to beta-actin.
Patient-derived cells including TSC2-null and TSC2 addback cells were treated with vehicle or PARP1 inhibitors for 24 hr. Total RNA was extracted using the RNeasy mini kit (Qiagen). cDNA was synthesized from 2 μg of total RNA using a high-capacity cDNA reverse transcription kit (Life Technologies) with random primers, according to the manufacturer's protocol. Gene expression was quantified using SYBR green real-time PCR Master Mixes kit (Life Technologies) in the Applied Biosystems Real-Time PCR System and normalized to Tubulin. The primers were used: […]

[4] = tested on: TSC2-deficient LAM patient-derived cells; assay: Expression array analysis of PARP genes; type: cell-based, human
[5] = tested on: TSC2-deficient LAM patient-derived cells; assay: Immunoblot of PARP1, phospho-S6 and phospho-Akt; type: cell-based, human; conditions: for phosphorylation of S6 (S240/244): rapamycin 20 nM (FIG. 6A)
Excerpt: Cell culture media and supplements were from GIBCO (Frederick, Md.). Tsc2^−/−p53^−/− and Tsc2^+/+p53^−/− mouse embryonic fibroblasts (MEFs) were developed previously. Mouse expression arrays of Tsc2^−/−p53^−/− and Tsc2^+/+p53^−/− MEFs (28) were preformed (29, 30). […] In brief, patient-derived cells were transfected with pcDNA3.1zeo-hTSC2 or its corresponding empty vector pcDNA3.1zeo (32). Eker rat uterine leiomyoma-derived Tsc2-deficient cells (ELT3) were developed by Howe et al. (33, 34). ELT3 cells were transduced with a retroviral plasmid pMSCVneo-hTSC2 or its corresponding empty vector pMSCVneo (35), and then selected with neomycin for two weeks. Stable clones were characterized for TSC2 expression. […] Experiments were performed in triplicate for biochemical analyses. Cells were seeded at a density of 2.5×10^5 cells/ml in 6-well plates in regular growth media for 24 hr. Media was replaced with serum-free media (Alpha-MEM with 1% PSA) with inhibitors or vehicle. […] assay buffer (RIPA) buffer (Boston Bioproducts, Boston, Mass.) supplemented with protease inhibitor cocktail (Roche, Indianapolis, Ind.) and phosphatase inhibitor cocktail (Thermo Scientific, Waltham, Mass.). Protein concentration was determined using Bradford assay (BioRad Laboratories Inc. Hercules, Calif.).

women with LAM = conditions: cited from earlier work
[6] = 20 nM rapamycin, 24 hr (FIG. 3C)

| SMILES | decrease of cell viability [1] | phospho-γH2A.X staining (TSC2-deficient cells) | PARP1 expression in renal tumors vs adjacent normal kidney [2] | phospho-S6 in renal tumors [2] | PARP1 transcript levels, real-time PCR [3] | expression of PARPs overall, expression array ([4]; rapamycin 24 hr (FIG. 2A, 2B)) | expression of some PARP isoforms (PARP1, PARP9, PARP12, PARP14), expression array ([4]; rapamycin 24 hr (FIG. 2A, 2B)) | level of PARP1 in expression array ([4]; rapamycin 24 hr (FIG. 3A)) | PARP1 protein levels, western blot [5, 6] | phosphorylation of ribosomal protein S6, western blot [5, 6] | phosphorylation of S6 (S240/244) [5] | phosphorylation of S6 (S240/244) ([5]; listed as Rapamycin) | phosphorylation of Akt (S473) ([5]; rapamycin (FIG. 6A)) | lung function (women with LAM) | quality of life (women with LAM) |
| --- | --- | --- | --- | --- | --- | --- | --- | --- | --- | --- | --- | --- | --- | --- | --- |
| O=C1NCCc2c(OCCCCN3CCCCC3)cccc21 [DPQ, 3,4-Dihydro-5[4-(1-piperindinyl)butoxy]-1(2H)-isoquinoline] | 15-40% |  |  |  |  |  |  |  |  |  |  |  |  |  |  |
| CO[C@H]1C[C@@H]2CC[C@@H](C)[C@@](O)(O2)C(=O)C(=O)N2CCCC[C@H]2C(=O)O[C@H]([C@H](C)C[C@@H]2CC[C@@H](O)[C@H](OC)C2)CC(=O)[C@H](C)/C=C(\C)[C@@H](O)[C@@H](OC)C(=O)[C@H](C)C[C@H](C)/C=C/C=C/C=C/1C [rapamycin] |  | did not affect | remained high | suppressed | did not alter | did not affect | appeared to increase | did not affect | did not affect | suppressed | suppressed | lower phospho-S6 levels | increased | stabilizes | improves |
